Experimental data published in PubChem BioAssay AID651595 (National Center for Advancing Translational Sciences (NCATS), 2012).
Among all 1,100 compounds or so, fewer than 10 were called active. Inconclusive results (about 6%) are left out. Calls come from the whole dose curve; as a rule, active = well fitted cell-killing curve with a large enough effect; inconclusive = small, poorly fitted or top-dose-only effect; inactive = flat fitted curve, though single readings scatter. Some of the results follow.

experiment: qHTS of Nrf2 Activators: Hit Validation in Cytotox Assay; settings: Cell viability counter-screen for Nrf2 activator hits; series mostly up to 46.1 µM; activity change, negative = cytotoxicity: at the top concentration;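 note: compound exposure lasted 24 hours before the ATP readout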; for activity change, negative = cytotoxicity: 0% is about no effect
Text: Many diseases have some form of oxidative stress injury and ties to inflammation, causing a host of problems for the patient. The antioxidant response element (ARE) plays an important role in alleviating the harmful effects of oxidative stress. The antioxidant response element (ARE) is a transcriptional regulatory element involved in the activation of genes coding for a number of antioxidant proteins and detoxifying enzymes. These enzymes work in concert to protect tissues from oxidative insults and chemical toxicities in human hepatocytes and immune cells. The protective effects of ARE activation are primarily triggered through Nrf2 (NF-E2-related factor) binding to and activating AREs. It is known that Nrf2 controls the production of over 250 antioxidant and detoxification proteins (Hu et al., 2006), thereby protecting tissues by increasing cellular antioxidant content and suppressing inflammatory signaling pathways. The transcription factor Nrf2 is a central link between oxidative chemicals, such as phenolic antioxidants and electrophilic compounds, and the activation of ARE. Nrf2 levels are constitutively low as a consequence of its interaction with Keap1, which targets its degradation (Zipper and Mulcahy, 2002). Electrophiles react with key cysteine residues in Keap1, releasing Nrf2 and allowing its translocation to the nucleus. Once within the nucleus, Nrf2 complexes with coactivators such as p300, and binds to the AREs to induce gene transcription of cytoprotective enzymes, resulting in the prevention of toxicity. Activation of Nrf2 protects tissues by increasing cellular antioxidant content and suppressing inflammatory signaling pathways. Identifying novel and potent Nrf2 activators by using the AREc32 cell line to detect ARE activation by small molecules will lead to the identification and development of probes to study protective pathways in multiple tissues. These specific probes are essential to study the ARE pathway, and eventually to determine whether this pathway does activate genes that could protect against a host of diseases, including cardiovascular diseases, obesity, diabetes, Alzheimer's, and Parkinson's disease.
This project's aim is to identify novel and potent Nrf2 activators by using the AREc32 cell line to detect ARE activation by small molecules, which will lead to the identification and development of probes to study the ARE pathway. Cytotoxic compounds are flagged as active, and inactivity is desired in this assay.
NIH Chemical Genomics Center [NCGC]
NIH Molecular Libraries Probe Centers Network [MLPCN]
Assay Submitter (PI): Curtis Klaassen, University of Kansas Medical Center
Cell viability after compound treatment was measured using a luciferase-coupled ATP quantitation assay (CellTiter-Glo, Promega) in AREc32_fluc cells. The change of intracellular ATP content indicates the number of metabolically competent cells after compound treatment. AREc32_fluc cells were harvested from T225 flask and resuspended in phenol red free OPTI-MEM medium with 5% FBS. Then 5 microL of 200,000 cells/ml resuspended cells was dispensed into each well of white, solid bottom, 1536-well tissue culture-treated plates using a Multidrop Combi dispenser. After overnight culture at 37 degrees C with 5% CO2, a total of 23 nL of compounds at 7 selected concentrations from the cherry pick or positive control (40 uM stock of CDDO-IM and 2 mM of tBHQ) in DMSO was transferred to each well of the assay plate using a pintool (Kalypsys, San Diego, CA), and the plates were further incubated at 37 degrees C with 5% CO2 for 24 hours. After that, 4 microL of CellTilter-GloTM luminescent substrate mix (Promega) was added to each well. The plate was incubated at room temperature for 30 minutes. The plates were measured on a ViewLux plate reader (PerkinElmer) with clear filter.
Potency is the fitted concentration of half-maximal effect.

Structure (SMILES) | activity change, negative = cytotoxicity | Potency
S=c1nc(-c2ccccc2)[nH]c2ccc(Br)cc12 | inactive: 8.86% | –
CCn1c(/C=C/c2ccccc2[N+](=O)[O-])nc2ccccc2c1=O | inactive: -0.354% | –
O=C(N/N=C/c1cn[nH]c1-c1ccccc1)c1ccco1 | inactive: 11.8% | –
NS(=O)(=O)c1ccc(Sc2nc3ccccc3s2)c([N+](=O)[O-])c1 | inactive: -13.7% | –
O=C(/C=C/c1ccco1)Nc1cccc2cccnc12 | inactive: 2.07% | –
Cn1ccsc1=NC(=O)c1ccc([N+](=O)[O-])o1 | inactive: -23.3% | –
Nc1c(C(=O)Nc2ccccc2Br)sc2nc(-c3cccs3)ccc12 | inactive: -2.28% | –
c1coc(-c2cnc3ccccc3n2)c1 | inactive: 8.74% | –
COC(=O)c1sccc1NC(=O)c1cc(C)on1 | inactive: 8.04% | –
Cc1ccc([N+](=O)[O-])c(OCc2ncc(Cl)n2C)c1 | inactive: -2.21% | –
O=C(CSc1ccc(-c2ccco2)nn1)N1CCCCC1 | inactive: -5.05% | –
CCOC(=O)C(=Cc1ccccc1OC)C(=O)OCC | inactive: -0.294% | –
COc1nc2ccc(C)cc2cc1-c1noc(-c2ccccc2)n1 | inactive: 5.62% | –
O=C(Nc1ncc2c(n1)-c1ccccc1CC2)c1cccs1 | inactive: -1.4% | –
O=c1nc2c(O)cccn2c2c1c(=O)[nH]c1ccccc12 | inactive: 11.3% | –
Cc1cc(-c2sccc2Br)nc(-n2cccc2)n1 | inactive: 6.63% | –
O=C1N/C(=N\N=C\c2ccco2)SC1Cc1ccccc1[N+](=O)[O-] (stereo not given) | inactive: 2.03% | –
O=C(CSc1ccc(-c2ccco2)nn1)N1CCCCCC1 | inactive: 0.45% | –
COCCNc1ccc(-c2nc(-c3ccco3)no2)cc1[N+](=O)[O-] | inactive: 2.29% | –
Cc1ccc(-c2nc(C=Nc3ccc(O)cc3)c(O)o2)cc1 | inactive: 7.56% | –

Another view of some results above.
Structure (SMILES),"activity change, negative = cytotoxicity",Potency
S=c1nc(-c2ccccc2)[nH]c2ccc(Br)cc12,inactive: 8.86%,–
CCn1c(/C=C/c2ccccc2[N+](=O)[O-])nc2ccccc2c1=O,inactive: -0.354%,–
O=C(N/N=C/c1cn[nH]c1-c1ccccc1)c1ccco1,inactive: 11.8%,–
NS(=O)(=O)c1ccc(Sc2nc3ccccc3s2)c([N+](=O)[O-])c1,inactive: -13.7%,–
O=C(/C=C/c1ccco1)Nc1cccc2cccnc12,inactive: 2.07%,–
Cn1ccsc1=NC(=O)c1ccc([N+](=O)[O-])o1,inactive: -23.3%,–
Nc1c(C(=O)Nc2ccccc2Br)sc2nc(-c3cccs3)ccc12,inactive: -2.28%,–
c1coc(-c2cnc3ccccc3n2)c1,inactive: 8.74%,–
COC(=O)c1sccc1NC(=O)c1cc(C)on1,inactive: 8.04%,–
Cc1ccc([N+](=O)[O-])c(OCc2ncc(Cl)n2C)c1,inactive: -2.21%,–
O=C(CSc1ccc(-c2ccco2)nn1)N1CCCCC1,inactive: -5.05%,–
CCOC(=O)C(=Cc1ccccc1OC)C(=O)OCC,inactive: -0.294%,–
COc1nc2ccc(C)cc2cc1-c1noc(-c2ccccc2)n1,inactive: 5.62%,–
O=C(Nc1ncc2c(n1)-c1ccccc1CC2)c1cccs1,inactive: -1.4%,–
O=c1nc2c(O)cccn2c2c1c(=O)[nH]c1ccccc12,inactive: 11.3%,–
Cc1cc(-c2sccc2Br)nc(-n2cccc2)n1,inactive: 6.63%,–
O=C1N/C(=N\N=C\c2ccco2)SC1Cc1ccccc1[N+](=O)[O-] (stereo not given),inactive: 2.03%,–

Continued:

Structure (SMILES) | activity change, negative = cytotoxicity | Potency
O=C1C(=C2CCc3ccccc32)Cc2ccccc21 | inactive: 0.97% | –
CNc1ccc(-c2nc(-c3ccco3)no2)cc1[N+](=O)[O-] | inactive: 12.3% | –
Nc1c(C(=O)c2ccc(Br)s2)oc2ccccc12 | inactive: 1.91% | –
Cc1ccc(S(=O)(=O)c2cc3ccccc3oc2=O)cc1 | inactive: 10.2% | –
NC(=O)c1nc(Nc2ccccc2)sc1NC(=O)c1ccccc1Br | inactive: 3.79% | –
C=CCSc1nccc(-c2cc(Cl)sc2Cl)n1 | inactive: -5.4% | –
Brc1ccc(-c2nnc(-c3cccnc3)c3conc23)cc1 | inactive: -1.23% | –
c1coc(CSc2ncnc3c2oc2ccccc23)c1 | inactive: -0.0884% | –
Cc1cc(C)n2nc(-c3ccc(F)cc3)cc2n1 | inactive: 3.57% | –
O=C(C=Cc1ccco1)c1ccc2ccccc2c1 | inactive: -2.17% | –
Fc1ccc(-c2nc3c4ccccc4ccn3c2Cc2ccccc2C(F)(F)F)cc1 | inactive: -6.37% | –
CN1c2ccsc2/C(=N/Nc2ccccc2)CS1(=O)=O | inactive: -1.51% | –
CC(=O)OC1(C(C)=O)CCC2C3CC(C(F)(F)F)C4=CC(=O)CCC4(C)C3CCC21C (stereo not given) | inactive: 2.22% | –
COC(=O)c1scc(C)c1NC(=O)c1ccc(Cl)cc1 | inactive: 1.37% | –
O=C(Oc1ccccc1/C=C\C(=O)c1cc2ccccc2o1)c1ccccc1 | inactive: 5% | –
COc1ccc(Cl)cc1NC(=O)c1cc(C)no1 | inactive: 10.2% | –
COc1ccc(OC)c(C(=O)Nc2c(O)ccc3ccccc23)c1 | inactive: 3.44% | –
CCSc1nc2ccccc2n1C(=O)/C=C\c1ccc(OC)c(OC)c1 | inactive: 21% | –
O=C(NC(=S)Nc1ccc(Cl)cn1)c1cccs1 | inactive: 0.914% | –
COc1ccc(Cl)cc1NC(=O)c1ccco1 | inactive: 10.9% | –

Structure (SMILES) | activity change, negative = cytotoxicity | Potency
Cc1ccc(N=C/C(C(=O)C(F)(F)F)=C(\O)c2ccco2)cc1Cl | inactive: -0.288% | –
Cc1ccccc1-c1noc(-c2ccccc2C(=O)NCc2ccco2)n1 | inactive: -13.3% | –
O=C1NC(=Nc2ccc(O)cc2)S/C1=C/c1ccco1 | inactive: -0.492% | –
COc1ccc(NC(=O)Nc2nnc(-c3ccccc3F)s2)cc1 | inactive: -0.609% | –
CNC(=O)C1CCN(S(=O)(=O)c2c(C)noc2/C=C/c2ccccc2F)CC1 | inactive: 6.61% | –
CCn1c(/C=C/c2ccccc2F)nc2ccccc2c1=O | inactive: -2.4% | –
Fc1cccc(Nc2cc(-n3cccn3)ncn2)c1 | inactive: -0.476% | –
Fc1ccc(Nc2nc3ccccc3n3cnnc23)c(F)c1 | inactive: -2.38% | –
COc1ccccc1-c1nnc(NC(C)=O)s1 | inactive: -1.66% | –
CSc1ccc(C2NN=C(c3ccccc3)S2)cc1 (stereo not given) | inactive: -0.741% | –
Cc1cc(C(=O)Nc2cc(Br)ccc2O)on1 | inactive: 11.2% | –
COC(=O)c1cc2nc(-c3ccccc3)cc(C(F)(F)F)n2n1 | inactive: 0.611% | –
O=[N+]([O-])c1ccccc1C=NNc1ccccc1 | inactive: -0.726% | –
CCN(C(=O)c1ccco1)c1nc(CC(=O)Nc2ccc(Cl)cc2)cs1 | inactive: -1.58% | –
CC(C)C(=O)Nc1nnc(-c2ccco2)s1 | inactive: 6.12% | –
O=C(/C=C/c1ccco1)Nc1cccc(S(=O)(=O)N2CCOCC2)c1 | inactive: 6.93% | –
c1ccc2nc3c(ccc4ccccc43)cc2c1 | inactive: 3.28% | –
O=C1C(Cl)=C(Nc2ccccc2)C(=O)c2ccccc21 | – | active: 16.4 µM
CC(C)c1ccc(NC(=O)c2cc(Br)ccc2Br)cc1 | inactive: 0.0039% | –
COC(=O)c1ccsc1NC(=O)CSc1nnnn1Cc1ccccc1 | inactive: 1.32% | –
